# Reference: the supplement of paper PMC8728848
# Some of the results follow.
# Legend:
# Test in all cases: glycan array binding signal (z-score within array); higher = stronger binding
# Details in all cases: glycan notation: IUPAC condensed, linker removed
# [1] = target: Neu5Ac(a2-3)Gal(b1-3)GalNAc
# Procedure, shortened: (§1)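 Glycan array data were curated from 3228 arrays in the Consortium for Functional Glycomics database and kept only where the protein sequence was available. Glycan names were converted to IUPAC-condensed notation, and columns mapping to the same glycan were averaged. The binding signal is a within-array Z-score, averaged across arrays of the same protein sequence at different concentrations or buffers and across linkers. Negative Z-scores can be read as non-binding.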
# [2] = target: Neu5Ac(a2-3)Gal(b1-3)GalNAc(b1-3)Gal(a1-4)Gal(b1-4)Glc
# Procedure, shortened: as §1
# [3] = target: Neu5Ac(a2-3)Gal(b1-3)GalNAc(b1-4)Gal(b1-4)Glc
# Procedure, shortened: as §1
# [4] = target: Neu5Ac(a2-3)Gal(b1-3)GalNAc(b1-4)[Neu5Ac(a2-3)]Gal(b1-4)Glc
# Procedure, shortened: as §1
# [5] = target: Neu5Ac(a2-3)Gal(b1-3)GalNAc(b1-4)[Neu5Ac(a2-8)Neu5Ac(a2-3)]Gal(b1-4)Glc
# Procedure, shortened: as §1
# [6] = target: Neu5Ac(a2-3)Gal(b1-3)GalNAc6S
# Procedure, shortened: as §1
# [7] = target: Neu5Ac(a2-3)Gal(b1-3)GlcNAc
# Procedure, shortened: as §1
# [8] = target: Neu5Ac(a2-3)Gal(b1-3)GlcNAc(b1-2)Man
# Procedure, shortened: as §1
# [9] = target: Neu5Ac(a2-3)Gal(b1-3)GlcNAc(b1-2)Man(a1-3)[GlcNAc(b1-4)][Neu5Ac(a2-3)Gal(b1-3)GlcNAc(b1-2)Man(a1-6)]Man(b1-4)GlcNAc(b1-4)GlcNAc
# Procedure, shortened: as §1
# [10] = target: Neu5Ac(a2-3)Gal(b1-3)GlcNAc(b1-2)Man(a1-3)[Neu5Ac(a2-3)Gal(b1-3)GlcNAc(b1-2)Man(a1-6)]Man(b1-4)GlcNAc(b1-4)GlcNAc
# Procedure, shortened: as §1
# [11] = target: Neu5Ac(a2-3)Gal(b1-3)GlcNAc(b1-2)[Neu5Ac(a2-3)Gal(b1-3)GlcNAc(b1-4)]Man(a1-6)[Neu5Ac(a2-3)Gal(b1-3)GlcNAc(b1-2)Man(a1-3)]Man(b1-4)GlcNAc(b1-4)GlcNAc
# Procedure, shortened: as §1
# [12] = target: Neu5Ac(a2-3)Gal(b1-3)GlcNAc(b1-3)Gal(b1-3)GlcNAc
# Procedure, shortened: as §1
# [13] = target: Neu5Ac(a2-3)Gal(b1-3)GlcNAc(b1-3)Gal(b1-4)GlcNAc
# Procedure, shortened: as §1
# [14] = target: Neu5Ac(a2-3)Gal(b1-3)GlcNAc(b1-3)GalNAc
# Procedure, shortened: as §1
# [15] = target: Neu5Ac(a2-3)Gal(b1-3)GlcNAc(b1-6)GalNAc
# Procedure, shortened: as §1
# [16] = target: Neu5Ac(a2-3)Gal(b1-3)GlcNAc6S
# Procedure, shortened: as §1
# [17] = target: Neu5Ac(a2-3)Gal(b1-3)[Fuc(a1-4)]GlcNAc
# Procedure, shortened: as §1
# [18] = target: Neu5Ac(a2-3)Gal(b1-3)[Fuc(a1-4)]GlcNAc(b1-3)Gal(b1-3)[Fuc(a1-4)]GlcNAc
# Procedure, shortened: as §1
# [19] = target: Neu5Ac(a2-3)Gal(b1-3)[Fuc(a1-4)]GlcNAc(b1-3)Gal(b1-4)[Fuc(a1-3)]GlcNAc
# Procedure, shortened: as §1
# [20] = target: Neu5Ac(a2-3)Gal(b1-3)[GlcNAc(b1-6)]GalNAc
# Procedure, shortened: as §1
# [21] = target: Neu5Ac(a2-3)Gal(b1-3)[Neu5Ac(a2-6)]GalNAc
# Procedure, shortened: as §1
# [22] = target: Neu5Ac(a2-3)Gal(b1-3)[Neu5Ac(a2-6)]GlcNAc(b1-3)[Fuc(a1-3)[Gal(b1-4)]GlcNAc(b1-6)]Gal(b1-4)Glc
# Procedure, shortened: as §1
binder,measurement,setting,value
EUL D1A first (Oryza sativa) (protein) MFGFGHHHNQAPAAPSDPNQIFKIFCRANENYCLTVRDSAVVLAPVNPKDEHQHWFKDMRFSTKVKDGEGMPAFALVNKATGLAVKHSLGQSHPVKLVPFNPEYEDASVLWTESKDVGKGFRCIRMVNNTRLNLDAFHGDKDHGGVRDGTTVVLWEWCKGDNQSWKILPWGPEAHSSSPGAATILEQKLISEEDLNSAVDHHHHHH,glycan array binding signal (z-score),[1],0.04
same,glycan array binding signal (z-score),[2],-0.673
same,glycan array binding signal (z-score),[3],-1.62
same,glycan array binding signal (z-score),[4],-0.536
same,glycan array binding signal (z-score),[5],0.621
same,glycan array binding signal (z-score),[6],0.472
same,glycan array binding signal (z-score),[7],0.945
same,glycan array binding signal (z-score),[8],0.094
same,glycan array binding signal (z-score),[9],-0.059
same,glycan array binding signal (z-score),[10],0.053
same,glycan array binding signal (z-score),[11],0.913
same,glycan array binding signal (z-score),[12],0.506
same,glycan array binding signal (z-score),[13],-0.002
same,glycan array binding signal (z-score),[14],-1.42
same,glycan array binding signal (z-score),[15],-0.676
same,glycan array binding signal (z-score),[16],-0.173
same,glycan array binding signal (z-score),[17],-0.746
same,glycan array binding signal (z-score),[18],0.057
same,glycan array binding signal (z-score),[19],0.634
same,glycan array binding signal (z-score),[20],0.405
same,glycan array binding signal (z-score),[21],0.105
same,glycan array binding signal (z-score),[22],0.5

# Part of the list above, as tab-separated lines:
binder	measurement	setting	value
EUL D1A first (Oryza sativa) (protein) MFGFGHHHNQAPAAPSDPNQIFKIFCRANENYCLTVRDSAVVLAPVNPKDEHQHWFKDMRFSTKVKDGEGMPAFALVNKATGLAVKHSLGQSHPVKLVPFNPEYEDASVLWTESKDVGKGFRCIRMVNNTRLNLDAFHGDKDHGGVRDGTTVVLWEWCKGDNQSWKILPWGPEAHSSSPGAATILEQKLISEEDLNSAVDHHHHHH	glycan array binding signal (z-score)	[11]	0.913
same	glycan array binding signal (z-score)	[12]	0.506
same	glycan array binding signal (z-score)	[13]	-0.002
same	glycan array binding signal (z-score)	[14]	-1.42
same	glycan array binding signal (z-score)	[15]	-0.676
